Source: US7659400B2, “Radiolabelled benzamide analogues, their synthesis and use in diagnostic imaging” (Washington University, priority 2003, dated 2010)

System: EMT-6 tumors
Experiment: microPET/microCT imaging of EMT-6 tumors
Format: in vivo, female Balb/c mice
Conditions: ~0.25 mCi via tail vein, imaged 1 h later

| SMILES | identification of EMT-6 tumors by microPET |
| --- | --- |
| COc1cc2c(cc1OC)CN(CCCCNC(=O)c1cc(C)ccc1OCC[18F])CC2 [[^18F]3c] | readily identifiable |
| COc1cc2c(cc1OC)CN(CCCCNC(=O)c1cc(I)cc(OC)c1OCC[18F])CC2 [[^18F]3f] | readily identifiable |
